Laboratory results taken from paper PMC7556057.
Results are given in words; binding and its absence hold for the method and conditions named. Binding seen in cells or lysates may run through a third protein. Some binding calls cover weakened binding; strength is not graded here. Where a sequence is shown, tags or fusion partners need not be part of it.

By UniProt entry, the sequences of proteins in these tests, tags left out.
UniProt P21796: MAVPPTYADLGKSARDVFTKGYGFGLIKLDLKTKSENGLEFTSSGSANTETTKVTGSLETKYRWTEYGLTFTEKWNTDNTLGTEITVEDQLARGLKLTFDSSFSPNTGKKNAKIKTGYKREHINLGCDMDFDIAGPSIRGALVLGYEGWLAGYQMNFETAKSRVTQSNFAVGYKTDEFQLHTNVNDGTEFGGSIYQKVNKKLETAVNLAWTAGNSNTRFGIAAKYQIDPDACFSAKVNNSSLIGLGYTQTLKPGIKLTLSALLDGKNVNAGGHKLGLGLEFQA

Columns and labels:
[1] = biological target: T1, tubulin polymerization-promoting protein family member 3 (TPPP3), FLAG-tagged (UniProt Q9BW30); assay: co-IP; lysates of HUVECs transfected with TPPP3-FLAG or VDAC1-HA, IP with antibodies to FLAG or HA (the methods say TPPP3 or VDAC1 antibody) and protein A/G agarose beads overnight at 4°C; Western blot for TPPP3 or VDAC1; irrelevant IgG as control
T1 sequence: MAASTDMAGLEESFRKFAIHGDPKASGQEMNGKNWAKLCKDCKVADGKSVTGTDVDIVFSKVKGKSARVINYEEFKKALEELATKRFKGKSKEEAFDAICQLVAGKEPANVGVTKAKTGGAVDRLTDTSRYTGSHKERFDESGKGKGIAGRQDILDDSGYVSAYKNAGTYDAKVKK

[2] = biological target: voltage-dependent anion channel 1 (VDAC1), HA-tagged (UniProt P21796); assay: as above

“voltage-dependent anion channel 1 (VDAC1), endogenous (from UniProt P21796 1-283)” was tested, and the binding [1] was “binds”.

B1: tubulin polymerization-promoting protein family member 3 (TPPP3) in HUVECs transfected with VDAC1-HA (protein, UniProt Q9BW30 1-176)
chain: T1 sequence
For B1, the binding [2] was “binds”.
